We go through two substances from publication PMC5706330.

The chains behind the UniProt entries cited, without tags or fusion partners. Residues count along the entry.
UniProt O70437: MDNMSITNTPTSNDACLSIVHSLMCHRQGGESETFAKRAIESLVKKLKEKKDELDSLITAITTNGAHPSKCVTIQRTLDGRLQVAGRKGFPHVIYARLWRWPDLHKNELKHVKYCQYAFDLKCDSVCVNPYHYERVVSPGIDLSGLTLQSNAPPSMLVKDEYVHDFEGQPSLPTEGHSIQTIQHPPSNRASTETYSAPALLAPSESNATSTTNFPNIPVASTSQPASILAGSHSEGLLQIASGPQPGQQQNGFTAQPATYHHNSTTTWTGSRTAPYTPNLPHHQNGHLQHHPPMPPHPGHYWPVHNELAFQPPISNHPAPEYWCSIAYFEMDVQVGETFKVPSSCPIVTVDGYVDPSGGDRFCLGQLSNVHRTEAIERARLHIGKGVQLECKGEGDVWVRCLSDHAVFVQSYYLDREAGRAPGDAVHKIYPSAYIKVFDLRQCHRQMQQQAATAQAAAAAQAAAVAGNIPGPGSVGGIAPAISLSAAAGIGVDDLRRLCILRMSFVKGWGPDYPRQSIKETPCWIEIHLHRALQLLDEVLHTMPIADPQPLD
UniProt P84025: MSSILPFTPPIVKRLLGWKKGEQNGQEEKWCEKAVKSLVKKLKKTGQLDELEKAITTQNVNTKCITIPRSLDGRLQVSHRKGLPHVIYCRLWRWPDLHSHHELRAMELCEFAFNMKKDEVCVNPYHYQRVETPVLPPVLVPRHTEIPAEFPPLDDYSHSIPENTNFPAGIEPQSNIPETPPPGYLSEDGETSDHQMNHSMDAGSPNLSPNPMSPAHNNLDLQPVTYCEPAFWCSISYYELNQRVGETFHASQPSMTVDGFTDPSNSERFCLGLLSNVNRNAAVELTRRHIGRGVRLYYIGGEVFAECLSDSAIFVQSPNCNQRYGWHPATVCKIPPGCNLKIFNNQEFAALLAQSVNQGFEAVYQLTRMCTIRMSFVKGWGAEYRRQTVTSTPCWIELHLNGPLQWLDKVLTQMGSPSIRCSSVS
UniProt Q5I0H3, residues 1-97: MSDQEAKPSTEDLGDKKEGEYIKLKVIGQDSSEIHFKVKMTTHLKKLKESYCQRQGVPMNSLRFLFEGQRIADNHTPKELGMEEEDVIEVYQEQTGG

No constants are given. Whether binding was seen depends on the method and setting. In cells and extracts the contact can be indirect. Some entries that bind do so weakly or less than the wild type.

In assay [1] the target is Smad4 (rat (endogenous in hippocampus)) (UniProt O70437). Description: co-IP; endogenous proteins in clarified rat hippocampal/CA1 lysate (0.5 mg); IP with anti-Smad4, anti-PIAS1 or anti-pSmad3 antibody at 4 °C overnight, protein A or G magnetic beads, washes with 150 mM NaCl and 1% IGEPAL CA-630, western blot; animals untreated, or water maze trained (1 day) versus swimming controls. (In general: In western blotting, separated proteins are transferred to a membrane and probed.)

The target in assay [2] is phosphorylated Smad3 (rat (endogenous in hippocampal CA1)) (UniProt P84025). The description is as above.

In the case of SUMO1 (from UniProt Q5I0H3 1-97), the binding result in assay [1] is recorded as “binds”.

Regarding Smad4 (from UniProt O70437 1-552), in assay [2], the binding result was “binds”.
